Values from PubChem BioAssay AID504804 (Drosophila RNAi Screening Center, 2011)

Purpose: 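Knock-downs shielding fly cells from apoptosis caused by DNA damage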 (primary screen)
Cells: Drosophila Kc cells
Reagents: long dsRNA against Drosophila genes, 0.5 µg dsRNA per well
Timing: 96 h (48 h knock-down, then 48 h drug)
Treatment: doxorubicin 5 µg/ml for 48 h, added 48 h after dsRNA
Detection: 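Viability measured as cellular ATP by luminescence after 48 h knock-down then 48 h doxorubicin at 5 µg/ml; unnormalised plate counts for each replicate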
Scale: raw ATP luminescence: higher = more viable cells, protection from doxorubicin
Active means: 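z-score of 2 or more over plate mean in both duplicates, retained only when retests and separate dsRNAs confirm the protection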
The deposit covers about 19,000 reagents; below is an unselected part of those that have a named target and a result. Over the whole deposit, 47 (0.25%) got an active call. 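Signals are raw, not normalised; exact z-scores behind calls not deposited; actives needed confirmation, so some wells reaching 2 SD are inactive.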 A plus sign joins genes that one reagent is predicted to hit.

gene | DRSC id | raw ATP luminescence, replicate 1 | raw ATP luminescence, replicate 2 | Call
Mau2 | DRSC15550 | 59153 | 23810 | inactive
CG2278 | DRSC18226 | 40040 | 40360 | inactive
DCTN4-p62 | DRSC06101 | 55207 | 48893 | inactive
CG3565 | DRSC04389 | 65580 | 50933 | inactive
Vha100-3 | DRSC05760 | 1.60e5 | 1.43e5 | inactive
Rbpn-5 | DRSC04440 | 62613 | 60997 | inactive
CG9175 | DRSC03153 | 93793 | 65780 | inactive
14-3-3epsilon | DRSC16370 | 66790 | 71910 | inactive
CG1317 | DRSC08305 | 61377 | 64313 | inactive
CG13407 | DRSC14583 | 66520 | 73490 | inactive
CG10598 | DRSC19358 | 2.08e5 | 2.31e5 | inactive
Tsen2 | DRSC01557 | 2.19e5 | 2.56e5 | inactive
CG7483 | DRSC16249 | 71633 | 59190 | inactive
Jhbp3 | DRSC12247 | 57923 | 60570 | inactive
NimC3 | DRSC03556 | 72143 | 80713 | inactive
Hr96 | DRSC16707 | 39103 | 48923 | inactive
CG9582 | DRSC03267 | 48830 | 83553 | inactive
mei-217 + mei-218 | DRSC20349 | 3.54e5 | 3.16e5 | inactive
Rpn6 | DRSC07541 | 55777 | 45133 | inactive
Lcp65Ae | DRSC11212 | 85507 | 97623 | inactive
CG14568 | DRSC11729 | 47107 | 70833 | inactive
MED15 | DRSC00267 | 66147 | 42163 | inactive
kek2 | DRSC03552 | 35990 | 58237 | inactive
ac | DRSC18734 | 21080 | 27030 | inactive
CG13784 | DRSC00974 | 2.48e5 | 2.36e5 | inactive
CG13784 | DRSC02287 | 1.02e5 | 55773 | inactive
CG1674 | DRSC17142 | 52400 | 55400 | inactive
CG31343 | DRSC15887 | 40770 | 46490 | inactive
Nmdar2 | DRSC18183 | 58950 | 48790 | inactive
Nmdar2 | DRSC18511 | 55400 | 54550 | inactive
Nmdar2 | DRSC18569 | 47190 | 48510 | inactive
CG5126 | DRSC00680 | 1.08e5 | 95060 | inactive
CG17127 | DRSC02581 | 38827 | 68563 | inactive
pncr004:X (retired record) | DRSC19295 | 1.72e5 | 1.85e5 | inactive
PpD3 | DRSC16796 | 66560 | 65907 | inactive
NimC1 | DRSC01879 | 69693 | 66367 | inactive
CG15118 | DRSC06540 | 65760 | 74440 | inactive
CG31055 | DRSC13832 | 1.80e5 | 2.03e5 | inactive

Single entries from the entries so far.
Rpn6 [DRSC07541], raw ATP luminescence, replicate 1 = 55777
Entry of Mau2 [DRSC15550] in “raw ATP luminescence, replicate 2”: 23810
Under “raw ATP luminescence, replicate 2”, Jhbp3 [DRSC12247] reads 60570

The list goes on.
gene | DRSC id | raw ATP luminescence, replicate 1 | raw ATP luminescence, replicate 2 | Call
Tsf2 | DRSC09751 | 47703 | 47187 | inactive
CG9664 | DRSC00725 | 1.29e5 | 86340 | inactive
CG14414 | DRSC19599 | 3.08e5 | 2.86e5 | inactive
CG7275 | DRSC10796 | 33487 | 22853 | inactive
Klp67A + CG34456 | DRSC10420 | 81187 | 63253 | inactive
CG7218 | DRSC16216 | 34200 | 33397 | inactive
Mco1 | DRSC02720 | 42443 | 79977 | inactive
CTCF | DRSC11004 | 46857 | 41987 | inactive
CG13284 | DRSC02256 | 49760 | 60187 | inactive
Pyroxd1 | DRSC02098 | 58967 | 74450 | inactive
CG11663 | DRSC17793 | 21100 | 23230 | inactive
Mical | DRSC14349 | 36943 | 59093 | inactive
Mical | DRSC14351 | 35367 | 57997 | inactive
Mical | DRSC15365 | 36507 | 51047 | inactive
Mical | DRSC15366 | 36010 | 59400 | inactive
CG14355 | DRSC14818 | 52720 | 30687 | inactive
Fas3 | DRSC01638 | 1.81e5 | 1.35e5 | inactive
Fas3 | DRSC03326 | 64700 | 71523 | inactive
Tehao | DRSC03449 | 17630 | 78373 | inactive
